Screening data, single-dose tests

Sequences of proteins named here, by UniProt entry; tags and fusion partners are left off. Residues count along the entry.
UniProt Q4DA54, 1-478: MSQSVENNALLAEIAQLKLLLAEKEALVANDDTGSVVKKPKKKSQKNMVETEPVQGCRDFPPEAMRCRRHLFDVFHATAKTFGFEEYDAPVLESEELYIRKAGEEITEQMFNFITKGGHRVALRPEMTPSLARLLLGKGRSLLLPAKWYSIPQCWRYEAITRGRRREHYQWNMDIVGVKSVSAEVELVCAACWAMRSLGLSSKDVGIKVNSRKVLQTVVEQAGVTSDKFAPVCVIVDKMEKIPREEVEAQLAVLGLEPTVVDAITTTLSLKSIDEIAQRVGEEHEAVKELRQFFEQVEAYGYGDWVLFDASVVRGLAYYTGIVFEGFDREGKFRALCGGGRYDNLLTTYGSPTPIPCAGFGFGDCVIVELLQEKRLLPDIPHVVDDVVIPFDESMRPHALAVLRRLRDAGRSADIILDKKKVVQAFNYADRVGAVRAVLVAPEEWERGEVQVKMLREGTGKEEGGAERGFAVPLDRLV
UniProt A4I591, 1-473: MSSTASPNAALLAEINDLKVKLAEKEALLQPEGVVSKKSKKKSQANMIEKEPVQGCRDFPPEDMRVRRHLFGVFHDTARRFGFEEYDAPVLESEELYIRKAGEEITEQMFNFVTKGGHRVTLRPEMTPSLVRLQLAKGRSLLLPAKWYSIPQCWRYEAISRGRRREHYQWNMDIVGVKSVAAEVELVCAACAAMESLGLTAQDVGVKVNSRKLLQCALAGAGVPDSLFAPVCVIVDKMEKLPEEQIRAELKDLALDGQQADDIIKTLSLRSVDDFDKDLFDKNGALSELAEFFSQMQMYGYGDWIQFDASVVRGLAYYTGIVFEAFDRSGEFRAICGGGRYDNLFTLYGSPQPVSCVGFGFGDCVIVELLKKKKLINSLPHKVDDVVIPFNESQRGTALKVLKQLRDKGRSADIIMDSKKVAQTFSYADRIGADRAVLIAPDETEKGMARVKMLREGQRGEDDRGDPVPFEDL
UniProt Q8IDJ8, 1-583: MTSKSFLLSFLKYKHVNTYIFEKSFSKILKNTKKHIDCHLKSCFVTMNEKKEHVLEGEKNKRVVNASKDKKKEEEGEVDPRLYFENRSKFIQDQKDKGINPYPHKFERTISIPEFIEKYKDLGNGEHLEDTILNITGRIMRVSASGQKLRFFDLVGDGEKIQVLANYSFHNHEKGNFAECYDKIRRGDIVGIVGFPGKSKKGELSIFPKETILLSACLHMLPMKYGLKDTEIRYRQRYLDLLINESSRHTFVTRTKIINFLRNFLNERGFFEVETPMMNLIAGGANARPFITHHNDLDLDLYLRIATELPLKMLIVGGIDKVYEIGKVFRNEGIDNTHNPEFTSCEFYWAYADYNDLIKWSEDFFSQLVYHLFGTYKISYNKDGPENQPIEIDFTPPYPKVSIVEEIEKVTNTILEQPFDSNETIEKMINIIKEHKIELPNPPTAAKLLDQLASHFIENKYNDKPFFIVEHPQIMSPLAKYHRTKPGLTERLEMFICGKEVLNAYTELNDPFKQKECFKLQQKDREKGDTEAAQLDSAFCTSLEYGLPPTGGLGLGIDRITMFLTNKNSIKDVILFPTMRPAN
UniProt P9WNZ1, whole entry: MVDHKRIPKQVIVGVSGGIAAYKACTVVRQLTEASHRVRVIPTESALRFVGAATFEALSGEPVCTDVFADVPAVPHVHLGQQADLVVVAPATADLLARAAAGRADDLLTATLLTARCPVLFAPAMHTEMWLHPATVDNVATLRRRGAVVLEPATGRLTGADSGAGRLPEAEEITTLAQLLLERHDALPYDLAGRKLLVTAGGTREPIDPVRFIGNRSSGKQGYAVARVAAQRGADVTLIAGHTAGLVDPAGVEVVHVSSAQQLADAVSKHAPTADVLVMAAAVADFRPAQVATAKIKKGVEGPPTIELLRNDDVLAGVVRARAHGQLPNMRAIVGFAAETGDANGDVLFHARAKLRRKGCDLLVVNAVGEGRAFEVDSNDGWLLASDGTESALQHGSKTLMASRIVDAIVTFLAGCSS

TcHisRS: 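Histidine-tRNA ligase, Trypanosoma cruzi CL Brener (UniProt Q4DA54). Enzyme assay of histidyl-tRNA synthetase; the read-out is not stated. Compounds at 30 µM. Direction is inferred from retests: higher values go with stronger inhibition. About 69,000 compounds were tested under these conditions; 0.045% (about 31) showed 50% or more at least once.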
LiHisRS: 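Histidine-tRNA ligase, Leishmania infantum (UniProt A4I591). Enzyme assay of histidyl-tRNA synthetase; the read-out is not stated. Compounds at 30 µM. Direction is inferred from retests: higher values go with stronger inhibition. The assay is labelled LdHisRS but filed under L. infantum. About 69,000 compounds were tested under these conditions; 0.6% (about 410) showed 50% or more at least once.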
Toxoplasma: 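Assay of Toxoplasma gondii numbers, read through their beta-galactosidase reporter with a colour substrate. Concentration: 10 µM. Higher reads as fewer parasites (inferred from which compounds were picked for retests). About 67,000 compounds were tested under these conditions; 0.38% (about 260) showed 50% or more at least once.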
PfKRS1: 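Enzyme assay of the cytosolic lysyl-tRNA synthetase in 384-well plates, read by luminescence. Target: Lysine-tRNA ligase, Plasmodium falciparum 3D7 (UniProt Q8IDJ8). Compounds at 30 µM. Direction is inferred from only a few compounds that gave an IC50; most scored high, so higher reads as stronger inhibition. About 69,000 compounds were tested under these conditions; 0.071% (about 49) showed 50% or more at least once.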
CoaBC: 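Coenzyme A biosynthesis protein CoaBC, Mycobacterium tuberculosis (UniProt P9WNZ1). Enzyme assay of CoaBC with a phosphate dye (Biomol Green) read at 650 nm. Concentration: 30 µM. Direction is inferred from only a few compounds that gave an IC50; most scored high, so higher reads as stronger inhibition. Most strong results did not repeat in a second test. Size under these conditions: about 67,000 compounds, about 40 of them at 50% or above in at least one test.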

Values are the deposited “Percent Effect”, in %.
The record does not define 0% and 100%; most values in the screen are far below 50% and negative numbers occur (in some assays of this library far below -100).
Compounds were drawn at random from those tested, without regard to their results.
A dash means the value is not listed here; it may have been measured.

| compound | TcHisRS | LiHisRS | Toxoplasma | PfKRS1 | CoaBC |
|---|---|---|---|---|---|
| `CCn1ccnc1CNCC1CCCN1c1cc(NC)ncn1` (centres unmarked) | 1.132 | 6.757 | -0.6303 | 4.51 | 2.999 |
| `COC(=O)NCC(=O)N1CCC(c2cc3ccccc3[nH]2)CC1` | 4.464 | 10.62 | 3.382 | 2.868 | 0.3774 |
| `Cn1ccnc1CN(CCCO)CC(F)(F)F` | -3.59 | 7.937 | 6.75 | 4.27 | -0.7453 |
| `COC(CNC(=O)C1CCCC1)c1ccc(C)s1` (centres unmarked) | 2.424 | 2.597 | 16.88 | 0.4498 | -1.277 |
| `CN(C)c1ccc(C(=O)N2CCN(CC(O)C(C)(C)C)CC2)nn1` (centres unmarked) | 2.305 | 8.929 | -8.347 | -0.4359 | 0.2273 |
| `CC1=N[C@@]2(CC[C@@H]3CN(CC(C)C)C[C@@H]32)C(=O)N1C` | 0.5348 | 4.274 | - | 4.553 | -15.42 |
| `COc1cccc(N2CCN(C(=O)[C@H](O)C3CCCCC3)CC2=O)c1` | 8.333 | 26.92 | -3.693 | 5.481 | 1.493 |
| `O=C(CCc1ccsc1)NC1CCN(c2cccc(F)c2)CC1` | 2.632 | 8.85 | 6.842 | 7.635 | 10.22 |
| `CC(C)CC(=O)Nc1ccc2c(c1)ncn2CC(=O)NCCN(C)C` | 10.89 | 20.88 | -5.206 | -1.579 | -2.892 |
| `CNc1cncc(C2CCN(C(=O)c3coc(C)n3)CC2)n1` | 4.857 | 9.396 | -37.14 | -0.4525 | 1.37 |
| `c1csc(-c2noc(C3CN(Cc4ccc5c(c4)CCO5)C3)n2)c1` | 4.124 | 13.91 | - | 3.701 | 0.6342 |
| `COCCCN(Cc1cnc(-c2cccs2)nc1)C1CCN(C)CC1` | 10.45 | 4.196 | -10.86 | 2.305 | 8.395 |
| `O=C(O)CSC1CCc2ccccc2NC1=O` (centres unmarked) | -18.18 | 18.18 | -3.528 | 3.054 | 3.576 |
| `N#CCSCCCN1CCN(C(=O)c2cccc(Cl)c2)CC1` | 4.02 | 9.574 | -9.182 | 2.283 | 10.5 |
| `Cc1ccoc1C(=O)N1C[C@@H]2COC[C@]2(COCc2cccnc2)C1` | 4.301 | -2.655 | - | 2.793 | -0.2105 |
| `CC(NCC(F)(F)F)c1ccc(S(C)(=O)=O)c(F)c1` (centres unmarked) | -3.333 | 8.108 | 0.6818 | 6.047 | -15.56 |
| `CN(C)C(=O)N1CC2(CCN(CC3CC3)CC2)c2cc(F)ccc21` | 1.942 | 0 | - | -0.2524 | -1.781 |
| `COCCS(=O)(=O)Nc1ccc(-n2cncn2)c(F)c1` | 4.118 | 7.339 | -7.201 | -0.9606 | 0.7673 |
| `Cc1noc(C)c1CN(C)CC1CCCN1c1cccnn1` (centres unmarked) | 0.3774 | 18.67 | 3.485 | 4.657 | 5.385 |
| `CN1CCN(C(=O)c2cc[nH]c(=O)c2)Cc2ccccc21` | 9 | 16.33 | 11.58 | 3.89 | 10.41 |
| `COCC(=O)N1CCC(c2cc(N(C)C)cc(C)n2)CC1` | -0.3759 | -1.418 | 4.651 | 0.4729 | -1.632 |
| `[H][C@]12CC[C@]([H])(CN(C(=O)CCc3n[nH]c(C)c3C)C1)N(CCOC)C2` | - | - | -21.65 | - | - |
| `Cc1cc(C)c(CNC(=O)NCCC2CCCO2)c(=O)[nH]1` (centres unmarked) | 7.647 | 14.68 | -31.86 | 0.3336 | 4.859 |
| `COc1cccc2c(C)c(C(=O)N3CCNCC3C(N)=O)[nH]c12` (centres unmarked) | 12.88 | 18.84 | - | -0.3842 | 0 |
| `CC(C)CN1C[C@H]2CCN(Cc3cccnc3)CC[C@H]2S1(=O)=O` | 0.5525 | 9.023 | - | 3.924 | 2.057 |
| `CN1CCN(C(=O)C[C@@H]2COC[C@H]3CN(c4ccncn4)C[C@@H]23)CC1` | -1.093 | 14.04 | - | -3.619 | 14.6 |
| `Cc1nnc(CN2CCC(Oc3ccc(F)cc3)CC2)o1` | 5.051 | 3.175 | 7.493 | 1.892 | -1.621 |
| `COCc1cncc2c1CCN(Cc1cnn(C)c1)C2.O=C(O)C(F)(F)F.O=C(O)C(F)(F)F` | - | - | -1.627 | - | - |
| `CN(C)C(=O)COCC1CN(Cc2ccoc2)Cc2nnn(C)c21` (centres unmarked) | -0.8264 | 10.91 | -2.319 | 0.2682 | 7.143 |
| `Cc1cc(CN(CCO)Cc2cc(Br)ccc2F)no1` | 8.333 | 12.5 | -6.275 | -0.3079 | -1.381 |
| `Cc1nn(C)c(N(C)C)c1CNCc1cccnc1` | 2.542 | -7.547 | 1.01 | -4.879 | -9.251 |
| `COc1cccc(C(=O)N2CCN(CC(O)c3ccccc3)CC2)c1` (centres unmarked) | 9.195 | 10.26 | -2.098 | 5.945 | 0 |
| `CC(=O)N1CCCc2cc(Nc3nccn(C)c3=O)ccc21` | 1.149 | 17.95 | -9.186 | 4.675 | 5.2 |
| `COc1ccc(CN2CCc3nc4ccsc4c(=O)n3CC2)c(C)c1C` | 5.993 | 0 | -19.75 | 1.24 | -0.8674 |
| `COc1ccccc1-c1ccccc1CC1(C(=O)O)CCNCC1` | 2.632 | 2.837 | 8.204 | 0.01526 | 3.963 |
| `O=C(CCNS(=O)(=O)c1ccccc1)N1CCOC(c2ccccc2)C1` (centres unmarked) | 0 | 11.11 | 0.767 | 4.755 | 7.131 |
| `COCCn1ccnc1C1CCCN(C(=O)c2ccncc2F)C1` (centres unmarked) | 5.941 | -1.37 | 5.365 | 1.922 | -4.731 |
| `CNC(=O)C1CCCN(C(=O)OC)C1` (centres unmarked) | 3.704 | 17.65 | -1.469 | 4.569 | 2.444 |
| `O=C(NCc1ccc(N2CC=CC2)cc1)Nc1nnc(C2CC2)s1` | -8.407 | 2.655 | -0.4704 | 0.9509 | 0.7009 |
| `[H][C@]12CN(C(=O)C3CCOCC3)CCN1C(=O)N(Cc1ccc(F)cc1)C2` | - | - | -0.07722 | - | - |
| `Cc1ccc2[nH]c(CNC(=O)C3CC4(CCNCC4)CN3C)nc2c1C` (centres unmarked) | 10.45 | 34.94 | -4.197 | -0.9874 | 7.152 |
| `O=C(O)c1ccnc(-c2ccnc(N3CCCCCC3)n2)c1` | 8.861 | 12.5 | -1.488 | -4.704 | 0.9615 |
| `CN(Cc1ccco1)C(=O)CN1C(=O)c2ccccc2C1=O` | 6.931 | 17.39 | - | 1.494 | 1.823 |
| `Cc1cn2c(=O)c(-c3ccnc(N4CCC[C@@H]4CO)n3)cnc2s1` | 9.04 | 37.14 | -15.06 | 3.631 | 2.53 |
| `Cc1cccc(CN2CCCC2c2cncc(Nc3nncs3)n2)c1` (centres unmarked) | 6.923 | 23.94 | - | 0.6102 | -2.613 |
| `COCCN1CCN(Cc2c(C)noc2C)Cc2cccnc21` | 8.163 | 13 | - | -0.5375 | 0.3708 |
| `CCN1CC2(CCN(C(=O)N(C)C)CC2)COc2ccccc2S1(=O)=O` | 6.542 | 15.28 | 17.53 | 2.037 | -12.84 |
| `CC(=O)N1CCC2(CCCN(C(=O)c3ccc(Cl)c(C(F)(F)F)c3)C2)C1` (centres unmarked) | 4.132 | 16.36 | 1.13 | 1.598 | 10.92 |
| `NC(=O)[C@H]1CCCN1C(=O)c1csc(-c2ccc(C(F)(F)F)cc2)n1` | 1.288 | 6.557 | 11.5 | 6.731 | -0.1196 |
| `CN(C(=O)C1CC(=O)N(CCc2ccccc2)C1)c1nccs1` (centres unmarked) | 4.891 | -8 | 3.373 | 2.455 | -8.678 |
| `O=C(c1cnccn1)N1CCN2C[C@H](OCc3ccccc3)C[C@H]2C1` | -1.98 | 15.07 | - | 7.264 | 0.8157 |
| `CC(C)NC(=O)c1nnn(-c2cccc(F)c2)c1C1CC1` | 5.804 | 13.58 | -0.5492 | -0.2733 | 3.571 |
| `CC(NC(=O)c1cccc[n+]1[O-])C1CC1` (centres unmarked) | 2.674 | 2.618 | -3.184 | 2.408 | 0.8696 |
| `CCN(CC)Cc1nc2c(o1)CN(C(=O)c1ccncc1F)C2` | -1.031 | 8 | -2.033 | 2.35 | 0 |
| `N#Cc1c(C2CC2)cc(-c2ccc(O)cc2)nc1N` | 3.306 | 11.43 | -8.517 | 5.078 | 3.509 |

Measurements from “University of Dundee, Small-Polar-MMV Screening Library” (2021), ChEMBL document CHEMBL3988442.